# Results: PMC11954242
# These are yes or no findings as the source states them, for the method shown. In cells and extracts the contact can be indirect. Binding calls can cover weak binding; strength is not graded here.
# Molecular target: T1, hepatocyte nuclear factor 4α (HNF4α) (rat (endogenous in NRVMs)) (UniProt P22449)
# T1 sequence: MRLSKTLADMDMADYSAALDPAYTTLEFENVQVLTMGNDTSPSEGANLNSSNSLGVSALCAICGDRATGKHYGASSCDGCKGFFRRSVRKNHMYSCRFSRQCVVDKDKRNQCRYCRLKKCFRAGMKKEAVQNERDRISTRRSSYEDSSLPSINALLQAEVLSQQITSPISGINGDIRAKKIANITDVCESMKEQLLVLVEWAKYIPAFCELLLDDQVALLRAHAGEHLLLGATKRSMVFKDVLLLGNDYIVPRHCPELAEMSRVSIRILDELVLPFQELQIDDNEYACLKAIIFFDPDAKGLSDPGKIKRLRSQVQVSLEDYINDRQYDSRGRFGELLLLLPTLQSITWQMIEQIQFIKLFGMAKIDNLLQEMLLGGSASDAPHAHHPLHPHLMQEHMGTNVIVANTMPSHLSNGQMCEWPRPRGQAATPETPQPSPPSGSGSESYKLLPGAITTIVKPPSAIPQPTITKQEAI
# Assay: co-IP; endogenous co-IP from NRVM lysates, cells under phenylephrine treatment for 24 h; specific antibody 4 h at 4 °C, then protein A/G agarose beads overnight, three PBS washes, Western blot; IgG as the control
substance,measurement,value
ovarian tumor domain-containing 7B (OTUD7B) (rat (endogenous in NRVMs)) (enzyme),binding,binds
